# Results published in article PMC10404973.
# Chains of the proteins cited; added tags and fusions are not shown.
# UniProt Q03164: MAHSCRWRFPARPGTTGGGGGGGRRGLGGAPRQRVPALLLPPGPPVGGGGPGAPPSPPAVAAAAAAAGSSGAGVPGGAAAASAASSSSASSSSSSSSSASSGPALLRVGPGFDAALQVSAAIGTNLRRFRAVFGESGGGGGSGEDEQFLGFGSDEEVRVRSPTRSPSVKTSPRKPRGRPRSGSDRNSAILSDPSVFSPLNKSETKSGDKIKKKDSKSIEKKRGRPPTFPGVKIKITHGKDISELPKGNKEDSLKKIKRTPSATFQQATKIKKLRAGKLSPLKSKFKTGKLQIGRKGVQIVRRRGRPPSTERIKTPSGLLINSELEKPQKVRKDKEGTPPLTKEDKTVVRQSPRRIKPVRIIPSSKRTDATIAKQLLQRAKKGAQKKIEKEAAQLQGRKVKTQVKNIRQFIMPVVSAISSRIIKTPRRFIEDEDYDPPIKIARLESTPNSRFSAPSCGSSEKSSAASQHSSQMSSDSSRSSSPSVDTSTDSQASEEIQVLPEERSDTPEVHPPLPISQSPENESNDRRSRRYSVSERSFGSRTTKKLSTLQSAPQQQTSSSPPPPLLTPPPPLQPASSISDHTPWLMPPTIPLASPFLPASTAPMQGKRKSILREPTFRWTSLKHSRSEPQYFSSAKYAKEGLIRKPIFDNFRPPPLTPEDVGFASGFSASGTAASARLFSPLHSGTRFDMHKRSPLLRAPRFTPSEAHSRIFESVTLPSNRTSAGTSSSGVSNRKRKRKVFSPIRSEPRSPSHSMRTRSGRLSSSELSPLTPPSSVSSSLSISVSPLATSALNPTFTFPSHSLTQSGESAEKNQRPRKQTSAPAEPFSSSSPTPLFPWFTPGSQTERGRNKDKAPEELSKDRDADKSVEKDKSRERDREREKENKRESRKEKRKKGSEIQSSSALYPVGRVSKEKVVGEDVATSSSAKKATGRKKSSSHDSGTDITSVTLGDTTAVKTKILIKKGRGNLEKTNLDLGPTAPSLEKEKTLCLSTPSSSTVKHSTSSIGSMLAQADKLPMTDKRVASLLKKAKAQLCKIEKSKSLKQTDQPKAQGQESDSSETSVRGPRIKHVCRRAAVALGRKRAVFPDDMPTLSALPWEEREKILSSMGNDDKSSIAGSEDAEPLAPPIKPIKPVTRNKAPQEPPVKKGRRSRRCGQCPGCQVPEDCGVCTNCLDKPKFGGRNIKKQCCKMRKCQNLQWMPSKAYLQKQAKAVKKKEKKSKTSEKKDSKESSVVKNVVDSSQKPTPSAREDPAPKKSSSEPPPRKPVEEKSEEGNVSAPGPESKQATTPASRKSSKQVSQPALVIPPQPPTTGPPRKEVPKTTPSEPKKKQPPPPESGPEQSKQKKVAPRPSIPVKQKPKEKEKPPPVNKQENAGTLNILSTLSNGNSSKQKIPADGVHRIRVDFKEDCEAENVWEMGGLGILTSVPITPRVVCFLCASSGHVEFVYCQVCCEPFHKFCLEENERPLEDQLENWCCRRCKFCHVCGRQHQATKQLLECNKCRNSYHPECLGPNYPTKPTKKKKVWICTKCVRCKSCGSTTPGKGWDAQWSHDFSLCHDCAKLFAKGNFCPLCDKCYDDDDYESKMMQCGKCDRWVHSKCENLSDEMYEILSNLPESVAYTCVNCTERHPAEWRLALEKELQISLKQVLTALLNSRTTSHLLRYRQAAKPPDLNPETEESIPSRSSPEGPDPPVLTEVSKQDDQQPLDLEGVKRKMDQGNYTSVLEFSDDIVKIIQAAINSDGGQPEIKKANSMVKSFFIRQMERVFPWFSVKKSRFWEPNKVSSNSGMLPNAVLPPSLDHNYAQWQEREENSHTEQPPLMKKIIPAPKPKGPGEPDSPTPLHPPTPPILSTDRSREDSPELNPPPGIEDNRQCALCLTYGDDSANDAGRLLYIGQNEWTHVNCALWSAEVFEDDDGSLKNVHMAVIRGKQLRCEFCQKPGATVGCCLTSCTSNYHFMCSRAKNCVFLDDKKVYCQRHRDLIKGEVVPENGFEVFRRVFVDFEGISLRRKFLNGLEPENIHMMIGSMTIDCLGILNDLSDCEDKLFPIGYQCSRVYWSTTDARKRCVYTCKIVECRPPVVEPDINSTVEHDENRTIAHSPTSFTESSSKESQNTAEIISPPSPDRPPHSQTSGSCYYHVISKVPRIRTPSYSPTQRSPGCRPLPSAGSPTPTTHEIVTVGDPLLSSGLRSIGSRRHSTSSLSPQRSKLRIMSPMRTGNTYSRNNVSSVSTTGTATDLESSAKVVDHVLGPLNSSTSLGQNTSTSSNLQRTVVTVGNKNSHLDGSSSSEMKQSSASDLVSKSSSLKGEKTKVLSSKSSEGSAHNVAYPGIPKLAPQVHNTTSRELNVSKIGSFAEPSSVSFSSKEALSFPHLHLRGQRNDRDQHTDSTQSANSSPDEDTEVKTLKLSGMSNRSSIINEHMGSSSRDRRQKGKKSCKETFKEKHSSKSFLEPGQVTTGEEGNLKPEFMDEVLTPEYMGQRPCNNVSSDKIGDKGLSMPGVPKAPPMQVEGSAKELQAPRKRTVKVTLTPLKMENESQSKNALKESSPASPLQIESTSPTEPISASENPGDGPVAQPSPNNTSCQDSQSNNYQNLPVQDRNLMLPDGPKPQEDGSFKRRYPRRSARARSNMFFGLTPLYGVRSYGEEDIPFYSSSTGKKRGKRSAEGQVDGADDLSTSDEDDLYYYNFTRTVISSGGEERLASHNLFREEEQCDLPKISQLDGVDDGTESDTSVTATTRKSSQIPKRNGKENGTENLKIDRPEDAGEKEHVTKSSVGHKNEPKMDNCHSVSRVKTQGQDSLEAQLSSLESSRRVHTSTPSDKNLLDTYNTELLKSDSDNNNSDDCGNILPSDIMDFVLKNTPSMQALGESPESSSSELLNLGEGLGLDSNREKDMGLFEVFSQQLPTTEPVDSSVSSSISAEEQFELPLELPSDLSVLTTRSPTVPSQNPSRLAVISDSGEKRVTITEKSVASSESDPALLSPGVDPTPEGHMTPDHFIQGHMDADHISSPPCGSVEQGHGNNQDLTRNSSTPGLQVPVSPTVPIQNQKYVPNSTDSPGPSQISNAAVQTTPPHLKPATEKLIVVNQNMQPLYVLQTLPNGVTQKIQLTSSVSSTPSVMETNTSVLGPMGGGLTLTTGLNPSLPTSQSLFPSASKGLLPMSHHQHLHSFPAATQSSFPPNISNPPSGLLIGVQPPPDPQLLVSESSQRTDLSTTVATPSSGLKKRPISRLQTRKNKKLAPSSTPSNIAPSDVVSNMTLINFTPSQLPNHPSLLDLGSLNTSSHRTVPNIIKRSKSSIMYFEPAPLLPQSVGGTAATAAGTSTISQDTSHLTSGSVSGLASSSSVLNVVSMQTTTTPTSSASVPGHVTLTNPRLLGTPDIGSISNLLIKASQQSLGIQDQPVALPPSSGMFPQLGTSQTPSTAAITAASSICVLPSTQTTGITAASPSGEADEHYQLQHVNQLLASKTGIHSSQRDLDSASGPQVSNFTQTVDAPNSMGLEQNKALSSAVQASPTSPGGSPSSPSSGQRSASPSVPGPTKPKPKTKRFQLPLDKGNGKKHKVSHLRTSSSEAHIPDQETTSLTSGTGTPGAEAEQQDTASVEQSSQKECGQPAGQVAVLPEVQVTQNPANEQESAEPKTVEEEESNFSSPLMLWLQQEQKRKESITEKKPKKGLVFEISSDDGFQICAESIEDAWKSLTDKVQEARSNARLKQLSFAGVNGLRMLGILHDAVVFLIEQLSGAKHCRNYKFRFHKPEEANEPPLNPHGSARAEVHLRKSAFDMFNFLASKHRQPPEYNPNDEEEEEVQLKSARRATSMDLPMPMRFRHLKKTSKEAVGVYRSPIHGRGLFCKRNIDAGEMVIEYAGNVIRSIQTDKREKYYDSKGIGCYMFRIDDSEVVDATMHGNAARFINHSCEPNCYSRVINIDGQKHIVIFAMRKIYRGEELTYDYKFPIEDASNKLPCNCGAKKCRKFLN
# UniProt P10275: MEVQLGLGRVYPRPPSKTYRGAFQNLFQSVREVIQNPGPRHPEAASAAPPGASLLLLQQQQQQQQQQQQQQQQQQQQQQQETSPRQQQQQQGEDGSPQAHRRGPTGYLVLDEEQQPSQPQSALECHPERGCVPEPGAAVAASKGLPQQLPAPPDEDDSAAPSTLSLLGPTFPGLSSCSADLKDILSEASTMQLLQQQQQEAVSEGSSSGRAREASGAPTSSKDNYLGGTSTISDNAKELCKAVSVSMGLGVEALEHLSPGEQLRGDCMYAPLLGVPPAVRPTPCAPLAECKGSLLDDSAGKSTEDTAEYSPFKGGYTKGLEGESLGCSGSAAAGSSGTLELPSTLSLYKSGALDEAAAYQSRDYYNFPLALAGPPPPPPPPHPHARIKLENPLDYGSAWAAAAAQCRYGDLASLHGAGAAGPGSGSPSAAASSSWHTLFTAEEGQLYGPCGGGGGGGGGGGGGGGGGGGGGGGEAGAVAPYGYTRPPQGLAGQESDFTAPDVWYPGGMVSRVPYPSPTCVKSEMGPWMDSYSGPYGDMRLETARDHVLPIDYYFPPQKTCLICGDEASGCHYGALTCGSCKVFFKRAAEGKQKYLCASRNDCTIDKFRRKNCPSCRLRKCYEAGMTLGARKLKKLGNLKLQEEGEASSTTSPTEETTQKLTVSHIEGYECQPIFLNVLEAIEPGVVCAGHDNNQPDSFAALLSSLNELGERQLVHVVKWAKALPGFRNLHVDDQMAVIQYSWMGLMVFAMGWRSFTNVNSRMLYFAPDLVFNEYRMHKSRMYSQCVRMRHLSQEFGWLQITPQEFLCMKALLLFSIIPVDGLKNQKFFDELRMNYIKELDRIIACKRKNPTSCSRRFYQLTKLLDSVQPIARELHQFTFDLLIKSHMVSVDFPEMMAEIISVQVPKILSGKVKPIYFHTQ
# Results are given in words; binding and its absence hold for the method and conditions named. In cells and extracts the contact can be indirect. Some results given as binding are weak or reduced against the parent protein; the word gives no strength. For some assays here: Where a sequence is shown, tags or fusion partners need not be part of it.
# What was measured:
# [1] = molecular target: T1, Histone methyltransferase enzyme SET7 (human (endogenous in LNCaP)) (UniProt Q8WTS6); experiment: co-IP; DHT-induced LNCaP cells, endogenous proteins; AR co-precipitating with MLL or SET7; cells treated with SM_1, MI-2 (3.0 uM) or sinefungin (20 uM) for 6 h or 8 h
# T1 sequence: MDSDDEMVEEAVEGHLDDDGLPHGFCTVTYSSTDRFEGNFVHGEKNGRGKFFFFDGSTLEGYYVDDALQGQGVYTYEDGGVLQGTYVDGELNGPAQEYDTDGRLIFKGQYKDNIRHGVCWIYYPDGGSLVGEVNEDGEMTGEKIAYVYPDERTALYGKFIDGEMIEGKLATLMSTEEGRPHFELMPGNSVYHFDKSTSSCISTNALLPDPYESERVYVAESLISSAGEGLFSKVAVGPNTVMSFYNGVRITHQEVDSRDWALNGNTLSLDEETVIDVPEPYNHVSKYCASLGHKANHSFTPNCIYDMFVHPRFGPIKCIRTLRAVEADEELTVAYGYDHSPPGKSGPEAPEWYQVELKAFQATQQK
# [2] = molecular target: mixed-lineage leukemia protein (MLL) (human (endogenous in LNCaP)) (UniProt Q03164); experiment: as above
substance,measurement,setting,value
androgen receptor (AR) (from UniProt P10275 1-920),binding,[1],binds
same,binding,[2],binds
